Test results as given in publication PMC13493903.
These are yes or no findings as the source states them, for the method shown. In cells and extracts the contact can be indirect. Some entries that bind do so weakly or less than the wild type.

Amino acid sequences for entries named in this document (tags omitted).
UniProt P27986: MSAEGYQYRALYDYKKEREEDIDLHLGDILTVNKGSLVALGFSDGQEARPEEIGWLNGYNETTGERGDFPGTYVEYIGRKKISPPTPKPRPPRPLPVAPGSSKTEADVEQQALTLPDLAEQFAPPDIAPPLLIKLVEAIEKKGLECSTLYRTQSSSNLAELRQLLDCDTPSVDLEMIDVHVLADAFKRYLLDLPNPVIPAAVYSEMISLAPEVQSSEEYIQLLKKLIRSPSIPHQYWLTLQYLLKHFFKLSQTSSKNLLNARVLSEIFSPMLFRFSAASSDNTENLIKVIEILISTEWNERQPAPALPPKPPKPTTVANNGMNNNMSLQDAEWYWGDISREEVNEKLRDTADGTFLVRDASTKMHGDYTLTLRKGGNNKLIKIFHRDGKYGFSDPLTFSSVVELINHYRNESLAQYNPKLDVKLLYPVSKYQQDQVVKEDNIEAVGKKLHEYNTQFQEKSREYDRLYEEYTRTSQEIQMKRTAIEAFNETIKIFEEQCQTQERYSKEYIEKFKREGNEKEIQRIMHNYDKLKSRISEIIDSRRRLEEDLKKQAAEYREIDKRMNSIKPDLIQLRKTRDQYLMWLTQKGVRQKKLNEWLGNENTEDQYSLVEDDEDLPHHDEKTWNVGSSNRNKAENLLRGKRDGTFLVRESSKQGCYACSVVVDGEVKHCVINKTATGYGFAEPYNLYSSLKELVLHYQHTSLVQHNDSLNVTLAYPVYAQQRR

Target: T1, Lymphocyte antigen 6 family member H (LY6H) (human (endogenous in Huh7)) (UniProt O94772)
T1 sequence: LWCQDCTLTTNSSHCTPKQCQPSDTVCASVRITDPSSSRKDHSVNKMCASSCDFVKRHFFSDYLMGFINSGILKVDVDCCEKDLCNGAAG
Assay: co-IP; Huh7 cells (control and LY6H-overexpressing) lysed in RIPA buffer with protease and phosphatase inhibitors; 2 ug anti-LY6H antibody or IgG control overnight at 4 C, Protein A/G magnetic beads, four washes with PBS; Western blot with anti-PI3K or anti-p-PI3K antibody

| binding | Substance |
| --- | --- |
| binds | PI3K p85 subunit (total PI3K) (from UniProt P27986 1-724) |
| binds | phosphorylated PI3K p85 (Tyr467) (from UniProt P27986 1-724) |
